Drawing on article PMC9169357, this text covers binding for one substance.

The chains behind the UniProt entries cited, without tags or fusion partners. Residues count along the entry.
UniProt P02751, residues 32-2477: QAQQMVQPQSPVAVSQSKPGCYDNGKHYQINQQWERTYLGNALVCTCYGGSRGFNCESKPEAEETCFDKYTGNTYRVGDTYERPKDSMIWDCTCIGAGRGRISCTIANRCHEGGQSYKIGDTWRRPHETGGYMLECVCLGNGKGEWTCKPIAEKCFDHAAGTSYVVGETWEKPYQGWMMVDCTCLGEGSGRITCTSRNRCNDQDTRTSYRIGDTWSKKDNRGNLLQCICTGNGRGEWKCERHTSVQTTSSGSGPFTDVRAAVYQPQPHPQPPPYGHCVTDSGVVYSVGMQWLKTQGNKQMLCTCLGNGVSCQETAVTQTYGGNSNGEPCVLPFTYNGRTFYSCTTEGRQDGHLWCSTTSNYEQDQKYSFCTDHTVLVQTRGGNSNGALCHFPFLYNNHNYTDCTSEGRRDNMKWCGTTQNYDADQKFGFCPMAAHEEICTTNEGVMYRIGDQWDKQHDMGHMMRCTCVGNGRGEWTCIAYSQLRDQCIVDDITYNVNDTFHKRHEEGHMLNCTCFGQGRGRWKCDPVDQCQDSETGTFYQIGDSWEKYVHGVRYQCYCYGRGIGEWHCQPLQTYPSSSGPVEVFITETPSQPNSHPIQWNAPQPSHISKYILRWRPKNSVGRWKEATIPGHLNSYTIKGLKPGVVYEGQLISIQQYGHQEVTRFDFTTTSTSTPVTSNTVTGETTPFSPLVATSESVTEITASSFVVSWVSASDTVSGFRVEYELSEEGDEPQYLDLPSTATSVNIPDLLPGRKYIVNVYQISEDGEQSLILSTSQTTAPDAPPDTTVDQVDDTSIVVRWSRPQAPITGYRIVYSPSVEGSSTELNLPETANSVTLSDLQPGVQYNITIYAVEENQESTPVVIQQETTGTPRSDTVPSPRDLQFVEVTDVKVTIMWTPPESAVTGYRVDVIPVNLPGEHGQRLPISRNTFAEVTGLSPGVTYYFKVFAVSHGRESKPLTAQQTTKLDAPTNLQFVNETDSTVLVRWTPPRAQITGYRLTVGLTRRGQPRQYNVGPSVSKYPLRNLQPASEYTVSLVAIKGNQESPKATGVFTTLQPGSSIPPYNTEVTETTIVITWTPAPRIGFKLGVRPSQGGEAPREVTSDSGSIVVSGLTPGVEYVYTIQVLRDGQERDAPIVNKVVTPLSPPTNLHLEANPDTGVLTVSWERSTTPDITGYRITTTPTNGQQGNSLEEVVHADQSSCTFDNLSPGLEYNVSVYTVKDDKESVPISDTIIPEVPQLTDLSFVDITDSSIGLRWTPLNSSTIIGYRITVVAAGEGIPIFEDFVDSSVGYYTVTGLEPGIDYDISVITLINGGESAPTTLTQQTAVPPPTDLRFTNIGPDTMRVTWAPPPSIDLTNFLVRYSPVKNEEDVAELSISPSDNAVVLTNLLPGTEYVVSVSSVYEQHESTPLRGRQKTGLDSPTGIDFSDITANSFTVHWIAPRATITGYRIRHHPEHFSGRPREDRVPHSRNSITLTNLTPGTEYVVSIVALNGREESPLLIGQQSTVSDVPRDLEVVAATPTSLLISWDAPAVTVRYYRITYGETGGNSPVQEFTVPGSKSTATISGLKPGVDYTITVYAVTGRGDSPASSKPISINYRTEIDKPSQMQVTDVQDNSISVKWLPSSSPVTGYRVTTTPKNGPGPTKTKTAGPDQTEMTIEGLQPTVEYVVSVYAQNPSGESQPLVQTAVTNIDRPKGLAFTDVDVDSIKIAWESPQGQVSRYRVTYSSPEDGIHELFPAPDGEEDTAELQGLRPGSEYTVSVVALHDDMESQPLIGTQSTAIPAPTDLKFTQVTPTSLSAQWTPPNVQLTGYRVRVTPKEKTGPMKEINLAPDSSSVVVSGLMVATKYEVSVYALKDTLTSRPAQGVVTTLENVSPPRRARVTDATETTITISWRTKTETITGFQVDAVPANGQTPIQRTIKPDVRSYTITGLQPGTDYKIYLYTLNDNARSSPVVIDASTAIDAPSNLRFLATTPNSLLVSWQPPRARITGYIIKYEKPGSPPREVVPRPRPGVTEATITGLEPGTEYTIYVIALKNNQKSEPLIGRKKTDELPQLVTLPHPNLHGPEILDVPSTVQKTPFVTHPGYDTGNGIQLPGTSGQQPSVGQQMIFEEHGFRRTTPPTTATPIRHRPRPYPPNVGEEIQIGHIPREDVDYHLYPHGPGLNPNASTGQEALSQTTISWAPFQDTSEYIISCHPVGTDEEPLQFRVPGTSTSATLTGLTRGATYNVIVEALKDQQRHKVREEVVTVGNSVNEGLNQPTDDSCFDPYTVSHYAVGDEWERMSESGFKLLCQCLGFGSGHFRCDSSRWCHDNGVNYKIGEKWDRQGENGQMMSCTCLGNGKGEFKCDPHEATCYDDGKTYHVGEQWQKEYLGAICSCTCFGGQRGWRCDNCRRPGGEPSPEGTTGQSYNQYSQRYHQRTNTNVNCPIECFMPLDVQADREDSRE

The target of assay [1] is T1, dysadherin (human (endogenous in SW480)) (UniProt Q96DB9).
T1 sequence: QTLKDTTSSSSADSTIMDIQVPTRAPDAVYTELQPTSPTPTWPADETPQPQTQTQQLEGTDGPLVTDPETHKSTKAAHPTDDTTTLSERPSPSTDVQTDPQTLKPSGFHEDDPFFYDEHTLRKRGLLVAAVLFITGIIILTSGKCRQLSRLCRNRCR
The assay can be described thus: co-IP; co-IP with the anti-dysadherin antibody M53 from CRC cell lysates (SW480 with or without dysadherin KO; HCT116 with or without dysadherin OE), immunoblot for fibronectin. (Immunoblotting shows a protein as a band on a membrane.)

In assay [2] the target is T2, dysadherin overexpressed in HCT116 cells (UniProt Q96DB9).
T2 sequence: T1 sequence
The description is as above.

These are yes or no findings as the source states them, for the method shown. In cells and extracts the contact can be indirect. Some entries that bind do so weakly or less than the wild type.

Take “fibronectin (from UniProt P02751 32-2477)”: the binding entry in assay [1] and in assay [2] was “binds” in each case.
